Measurements taken from patent US20030108554A1 (published 2003).
These are yes or no findings as the source states them, for the method shown. Some entries that bind do so weakly or less than the wild type.

Target: T1, DOC1-related protein (human, UniProt Q4L180 241-1128)
T1 sequence: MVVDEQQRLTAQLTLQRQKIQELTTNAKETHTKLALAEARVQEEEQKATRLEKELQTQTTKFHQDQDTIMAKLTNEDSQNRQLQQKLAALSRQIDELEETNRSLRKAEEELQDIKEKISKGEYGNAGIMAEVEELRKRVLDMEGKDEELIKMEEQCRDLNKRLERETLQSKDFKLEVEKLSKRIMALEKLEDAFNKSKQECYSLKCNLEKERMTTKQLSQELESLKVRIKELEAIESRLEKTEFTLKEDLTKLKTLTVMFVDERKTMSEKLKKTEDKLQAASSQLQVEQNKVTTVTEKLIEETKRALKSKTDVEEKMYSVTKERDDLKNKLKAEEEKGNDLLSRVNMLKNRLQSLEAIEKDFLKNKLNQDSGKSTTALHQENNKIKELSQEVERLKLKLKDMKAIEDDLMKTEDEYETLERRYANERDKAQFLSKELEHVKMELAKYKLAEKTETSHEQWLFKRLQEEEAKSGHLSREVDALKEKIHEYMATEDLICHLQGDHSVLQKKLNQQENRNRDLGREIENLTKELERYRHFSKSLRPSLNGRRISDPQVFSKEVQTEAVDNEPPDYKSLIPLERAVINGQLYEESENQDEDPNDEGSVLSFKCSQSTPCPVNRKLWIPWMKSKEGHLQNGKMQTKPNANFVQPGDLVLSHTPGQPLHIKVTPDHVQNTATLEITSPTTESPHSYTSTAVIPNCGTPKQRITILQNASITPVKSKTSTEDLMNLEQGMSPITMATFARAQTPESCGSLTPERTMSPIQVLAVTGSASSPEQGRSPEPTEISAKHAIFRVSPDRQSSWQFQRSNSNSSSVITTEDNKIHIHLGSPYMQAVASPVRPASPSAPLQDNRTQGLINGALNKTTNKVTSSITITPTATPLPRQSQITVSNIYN
Assay: yeast two-hybrid

binding: binds
B1: DOC1-related protein (protein)
chain: T1 sequence
